No constants are given. Whether binding was seen depends on the method and setting. Binding seen in cells or lysates may run through a third protein. Some entries that bind do so weakly or less than the wild type. For some of these results: Tags and fused reporters may be left off the sequences shown. Values belong to the molecule of their own block, whether it stands above or below them.
How the values were obtained:
[1] = biological target: T1, endogenous perilipin (human (endogenous in SGBS)) (UniProt O60240); experiment: co-IP; SGBS adipocytes transduced with Seipin-MycHis, differentiated seven days with doxycycline; Pierce IP Lysis Buffer; endogenous perilipin precipitated with anti-perilipin mAb and Protein A beads; blots for Myc and seipin
T1 sequence: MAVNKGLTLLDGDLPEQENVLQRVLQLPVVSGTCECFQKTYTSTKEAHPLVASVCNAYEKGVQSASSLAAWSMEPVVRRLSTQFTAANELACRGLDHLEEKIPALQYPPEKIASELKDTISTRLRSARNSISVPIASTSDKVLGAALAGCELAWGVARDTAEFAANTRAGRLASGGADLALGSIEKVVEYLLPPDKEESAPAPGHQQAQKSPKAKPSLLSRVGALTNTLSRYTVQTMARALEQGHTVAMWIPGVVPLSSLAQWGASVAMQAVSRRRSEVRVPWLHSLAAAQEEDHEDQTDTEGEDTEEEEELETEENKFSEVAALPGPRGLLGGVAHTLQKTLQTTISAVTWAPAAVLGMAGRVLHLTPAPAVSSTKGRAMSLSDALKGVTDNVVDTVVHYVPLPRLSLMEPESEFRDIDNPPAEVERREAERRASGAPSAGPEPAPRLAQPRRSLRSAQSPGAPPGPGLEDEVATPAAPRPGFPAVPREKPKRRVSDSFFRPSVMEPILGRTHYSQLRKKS

[2] = biological target: T2, Myc-perilipin-YFPc (UniProt O60240); experiment: split reporter; BiFC with YFP fragments in differentiating 3T3-L1 cells; 37 °C 48 h, then 32 °C 20 h and 30 °C 4 h; fixed, confocal microscopy
T2 sequence: T1 sequence

[3] = biological target: T3, FLAG-perilipin (in HEK293 cells) (UniProt O60240); experiment: co-IP; HEK293 cells co-transfected; lysis in 50 mM n-octyl-b-D-glucopyranoside, 50 mM Tris pH 6.8, 150 mM NaCl, 1 mM EDTA; anti-FLAG-agarose 2 h at 4 °C, elution with 3xFLAG peptide; blots for Myc, FLAG and calnexin
T3 sequence: T1 sequence

[4] = biological target: T4, seipin-Myc (UniProt Q96G97 1-398); experiment: co-IP; FLAG-perilipin and seipin-Myc co-expressed in tsA 201 cells; proteins isolated and eluted from anti-Myc agarose; perilipin in the eluates detected on blots by its FLAG tag
T4 construct: seipin (product of BSCL2) in the pcDNA3.1 MycHis vector; also called seipin dodecamers; not shown: Myc, C-terminal, kept; copies: 12
T4 sequence (looked up): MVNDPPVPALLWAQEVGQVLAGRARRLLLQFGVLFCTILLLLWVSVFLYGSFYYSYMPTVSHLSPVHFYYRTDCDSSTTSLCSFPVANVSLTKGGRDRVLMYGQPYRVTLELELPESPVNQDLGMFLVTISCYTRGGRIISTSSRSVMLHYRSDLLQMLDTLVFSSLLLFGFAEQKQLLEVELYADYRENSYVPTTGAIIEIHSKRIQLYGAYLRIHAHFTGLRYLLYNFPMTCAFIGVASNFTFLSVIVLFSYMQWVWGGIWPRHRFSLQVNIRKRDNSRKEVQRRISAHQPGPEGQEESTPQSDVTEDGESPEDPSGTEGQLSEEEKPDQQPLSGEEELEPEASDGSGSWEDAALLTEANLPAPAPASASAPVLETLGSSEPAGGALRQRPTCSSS

Molecule: Seipin-MycHis (pLXI-Seipin-MycHis) (from UniProt Q96G97 1-398)
binding [1]: binds

Molecule: FLAG-seipin-YFPn (from UniProt Q96G97 1-398)
binding [2]: binds

Other lines, results leading:

binding [3]: binds
Molecule: Wild-type Myc-seipin (WT) (from UniProt Q96G97 1-398)

binding [4]: binds
B1: FLAG-perilipin (in tsA 201 cells) (natural protein, UniProt O60240 1-522, looked up)
chain: T1 sequence
notes: perilipin (product of PLIN1) in the pCMV3xFLAG vector; Same construct as m7, other host cells

Source: paper PMC6531784, “Discovering metabolic disease gene interactions by correlated effects on cellular morphology” (Molecular Metabolism, 2019)
